In PubChem BioAssay (NCATS):
Inconclusive means that the source gave no clear call. Such entries were picked first, then a sample of the others. A potency beside an inconclusive call is a rough fit, not a confirmed value. The source made the active and inactive calls. The call rests on the fitted dose curve; in most records, active means well fitted cell-killing curve with a large enough effect; inconclusive means small, poorly fitted or top-dose-only effect, or effect the other way; inactive means no such curve, though single readings can be large or run the other way.

experiment: Quantitative High-Throughput drug screen in 47 multiple myeloma cell lines against the NCATS MIPE library collection: KHM11_PLB cell viability assay (AID 1918962); conditions: KHM11 myeloma cell viability, CellTiter-Glo ATP luminescence, 48 h; series mostly up to 45.8 µM; further: nearly all actives have a fitted effect of over 35% in size
Excerpt: PI: Beverly A. Mock Ph.D.
Laboratory of Cancer Biology and Genetics,
Center for Cancer Research, National Cancer Institute,
National Institute of Health, Bethesda, Maryland
Drug resistance and disease progression are common in multiple myeloma (MM) patients, underscoring the need for new therapeutic combinations. […] We hypothesized that effective combinations would reduce MYC expression and enhance p16 activity. […] These preclinical data identify potentially useful drug combinations for evaluation in drug-resistant MM and reveal potential mechanisms of combined drug sensitivity.
Described herein is the primary MIPE qHTS used to cherrypick compounds. Validated compounds were then further tested for potential synergistic activiy.
[1] Peat TJ, Gaikwad SM, Dubois W, Gyabaah-Kessie N, Zhang S, Gorjifard S, Phyo Z, Andres M, Hughitt VK, Simpson RM, Miller MA, Girvin AT, Taylor A, Williams D, D'Antonio N, Zhang Y, Rajagopalan A, Flietner E, Wilson K, Zhang X, Shinn P, Klumpp-Thomas C, McKnight C, Itkin Z, Chen L, Kazandijian D, Zhang J, Michalowski AM, Simmons JK, Keats J, Thomas CJ, Mock BA. Drug combinations identified by high-throughput screening promote cell cycle transition and upregulate Smad pathways in myeloma. Cancer Lett. 2023 Aug 1;568:216284. doi: 10.1016/j.canlet.2023.216284. Epub 2023 Jun 24. PMID: 37356470; PMCID: PMC10408729.
SEQUENCE No. (e.g., 1, 2, 3, etc.); […] (e.g., Cells, Incubation, Reagent, etc.); VALUE and DESCRIPTION.
1; Cells; 5 uL; white, solid bottom 1536-well Greiner assay plate.
2; Compounds; 23 nL; Kalypsis pin tool (Wako USA) equipped with a 1536-well pin head to transfer to the assay plates.
3; Incubation; 48 hours; 37C incubation.
4; Reagent;5uL; CellTiter Glo (Promega).
5; Detector; 425V; Luminescence; Viewlux PerkinElmer.
NOTES (numbers refer to Sequence numbers above)
1. The cell-based screening methods employed in this study were like those previously published. Briefly, the corresponding myeloma cell lines were screened in 1,536-well plates with 500 cells, 5-uL per well for inhibition of cell viability (assessed by measuring ATP levels with CellTiterGlo).
2. NCATS MIPE 4.0 library of approved and investigational drugs were added using the Kalypsis pin tool. Wells treated with DMSO only for 100% viability and media only wells for 0% viability were used as controls.
3. The assay plates were covered and incubated for 48 hours in a 37C, 5% CO2 incubator with controlled humidity.
4. After 48 hours, CellTilter-GloTM luminescent substrate mix (Promega) reagent was added to the assay plate and plates we incubated for 5 min at room temperature.
5. Signal was measured as median relative luminescence units on a ViewLux (PerkinElmer) multiplate reader.
[1] Heske CM, Davis MI, Baumgart JT, Wilson K, Gormally MV, Chen L, Zhang X, Ceribelli M, Duveau DY, Guha R, Ferrer M, Arnaldez FI, Ji J, Tran HL, Zhang Y, Mendoza A, Helman LJ, Thomas CJ. Matrix Screen Identifies Synergistic Combination of PARP Inhibitors and Nicotinamide Phosphoribosyltransferase (NAMPT) Inhibitors in Ewing Sarcoma. Clin Cancer Res. 2017 Dec 1;23(23):7301-7311. doi: 10.1158/1078-0432.CCR-17-1121. Epub 2017 Sep 12. PMID: 28899971; PMCID: PMC6636827.
Potency means the concentration at half of the fitted maximal effect.

Compound | Potency
c1cc(N[C@@H]2CCNC2)nc(-c2cnc3ccc(-c4cn[nH]c4)cn23)c1 | active: 3.32 µM
COc1ccc(C(C)=O)c(O)c1 | inconclusive: 0.0105 µM [rising, full curve, poor fit]
C[C@@H](NCc1cc2ccccc2[nH]1)c1cccc2ccccc12 | inconclusive: 4.18 µM [rising, partial curve, poor fit]
Cc1cc(C(C)(C)C)cc(C)c1CC1=NCCN1 | inactive
CC1(C)CC(=O)c2c(C(F)(F)F)nn(-c3ccc(C(N)=O)c(NC4CCC(O)CC4)c3)c2C1 (stereo not given) | inconclusive: 0.059 µM [cytotoxic, full curve]
CC1=CC(=O)c2ccccc2C1=O | inconclusive: 37.2 µM [cytotoxic, single point]
Nc1ccn([C@@H]2CS[C@H](CO)O2)c(=O)n1 | inconclusive: 76.2 µM [cytotoxic, single point]
N[C@@H](Cc1ccc(O)c(O)c1)C(=O)O | inconclusive: 26.4 µM [rising, partial curve, poor fit]
CNC(=O)c1ccc(N2C(=S)N(c3ccc(C#N)c(C(F)(F)F)c3)C(=O)C2(C)C)cc1F | inactive
CN(c1nccc(=O)[nH]1)C1CCN(c2nc3ccccc3n2Cc2ccc(F)cc2)CC1 | inconclusive: 0.469 µM [rising, full curve]
CC(C)(CO)[C@@H](O)C(=O)NCCC(=O)O | inconclusive: 0.0037 µM [rising, full curve, poor fit]
N[C@@H](C(=O)N[C@@H]1C(=O)N2C(C(=O)O)=C(Cl)CS[C@H]12)c1ccccc1 | inactive
CC(C)c1nc(CN(C)C(=O)N[C@H](C(=O)N[C@@H](Cc2ccccc2)C[C@H](O)[C@H](Cc2ccccc2)NC(=O)OCc2cncs2)C(C)C)cs1 | inconclusive: 0.0042 µM [rising, full curve, poor fit]
O=C(CC12CC3CC(CC(C3)C1)C2)Nc1cccc2nc(NCCNCCO)ccc12 | active: 5.26 µM
COc1cccc(N(C)C(=S)Oc2ccc3c(c2)CCCC3)n1 | inconclusive: 1.87 µM [rising, full curve, poor fit]
Nc1nc(F)nc2c1ncn2[C@@H]1O[C@H](CO)[C@@H](O)[C@@H]1O | active: 0.187 µM
Clc1ccc(COC(Cn2ccnc2)c2ccc(Cl)cc2Cl)c(Cl)c1 (stereo not given) | inconclusive: 10.5 µM [cytotoxic, partial curve, poor fit]
CCC(c1ccc(O)cc1)C(CC)c1ccc(O)cc1 (stereo not given) | inconclusive: 1.48 µM [cytotoxic, full curve, poor fit]
CCCCCCCc1ccc(CCc2cccc(O)c2C(=O)O)cc1 | inconclusive: 3.72 µM [cytotoxic, full curve, poor fit]
CCC(=O)NCC[C@@H]1CCc2ccc3c(c21)CCO3 | active: 13.2 µM

Compound | Potency
CNC(=O)c1cccc(-c2ccc3c(N4CCOC[C@H]4C)nc(N4CCOC[C@H]4C)nc3n2)c1 | inconclusive: 0.0264 µM [cytotoxic, full curve]
COc1nc(C)nc(Cl)c1NC1=NCCN1 | inactive
CC(C)(O)CCc1ccc(OCc2cc(-c3cccc(OC(F)F)c3)c3ncccc3c2)cc1 | inconclusive: 5.26 µM [rising, partial curve, poor fit]
CN[C@H]1[C@@H](O[C@@H]2[C@H](O[C@@H]3[C@@H](O)[C@@H](O)[C@@H](N=C(N)N)[C@@H](O)[C@@H]3N=C(N)N)O[C@H](C)[C@@]2(O)C=O)O[C@@H](CO)[C@@H](O)[C@H]1O | inconclusive: 0.751 µM [cytotoxic, full curve, poor fit]
O=C(O)[C@H](Cc1c[nH]c2ccccc12)N1C(=O)c2ccccc2C1=O | inconclusive: 6.79 µM [rising, full curve]
CC1(O)CC(c2nc(-c3ccc4ccc(-c5ccccc5)nc4c3)c3c(N)nccn23)C1 (stereo not given) | active: 4.18 µM
C[C@@H](O)[C@H]1C(=O)N2C(C(=O)OCOC(=O)C(C)(C)C)=C(SC3CN(C4=NCCS4)C3)[C@H](C)[C@H]12 | inactive
COc1ccc2[nH]cc(CCNC(C)=O)c2c1 | inconclusive: 20.9 µM [cytotoxic, partial curve, poor fit]
C[C@H](O)[C@@H]1C(=O)N2C(C(=O)O)=C(S[C@@H]3CN[C@H](CNS(N)(=O)=O)C3)[C@@H](C)[C@@H]12 | inconclusive: 0.001 µM
CC[C@H](C)C(=O)O[C@H]1C[C@@H](C)C=C2C=C[C@H](C)[C@H](CC[C@@H]3C[C@@H](O)CC(=O)O3)[C@H]21 | inconclusive: 20.9 µM [cytotoxic, partial curve, poor fit]
Clc1cccc(Cl)c1NC1=NCCN1 | inactive
O=C(O)c1cccnc1 | active: 18.7 µM
C[C@H]1O[C@@H](n2cc(F)c(=O)[nH]c2=O)[C@H](O)[C@H]1O | inconclusive: 3.32 µM [cytotoxic, full curve, poor fit]
CNC[C@@H](O)[C@@H](O)[C@H](O)[C@H](O)CO | inconclusive: 0.0033 µM [rising, full curve, poor fit]
Cn1c(=O)c2c(ncn2C)n(C)c1=O | inactive
COc1ccc(Cc2nccc3cc(OC)c(OC)cc23)cc1OC | inconclusive: 9.35 µM [rising, single point]
O=C(c1ccc(F)cc1)C1CCN(CCn2c(=O)[nH]c3ccccc3c2=O)CC1 | inactive
O=C1CCC[C@@H]2[C@H]3CCC[N+]4([O-])CCC[C@@H](CN12)[C@@H]34 (stereo not given in full) | inconclusive: 0.001 µM
CCCOc1ccc(C(=O)OCCN(CC)CC)cc1N | inconclusive: 4.69 µM [rising, partial curve]
CCOC(=O)c1ccc(C#Cc2ccc3c(c2)C(C)(C)CCS3)nc1 | inconclusive: 0.0066 µM [rising, full curve]

An excerpt from above in order of molar mass, largest number first:
Compound | Potency
CC(C)(O)CCc1ccc(OCc2cc(-c3cccc(OC(F)F)c3)c3ncccc3c2)cc1 | inconclusive: 5.26 µM [rising, partial curve, poor fit]
C[C@H](O)[C@@H]1C(=O)N2C(C(=O)O)=C(S[C@@H]3CN[C@H](CNS(N)(=O)=O)C3)[C@@H](C)[C@@H]12 | inconclusive: 0.001 µM
COc1ccc(Cc2nccc3cc(OC)c(OC)cc23)cc1OC | inconclusive: 9.35 µM [rising, single point]
